Measurements as given in article PMC12448893.
No constants are given. Whether binding was seen depends on the method and setting. In cells and extracts the contact can be indirect. Some results given as binding are weak or reduced against the parent protein; the word gives no strength.

By UniProt entry, the sequences of proteins in these tests, tags left out. Where a name states a change or a piece, a line headed by the entry shows the natural chain unless it says otherwise.
UniProt Q13547: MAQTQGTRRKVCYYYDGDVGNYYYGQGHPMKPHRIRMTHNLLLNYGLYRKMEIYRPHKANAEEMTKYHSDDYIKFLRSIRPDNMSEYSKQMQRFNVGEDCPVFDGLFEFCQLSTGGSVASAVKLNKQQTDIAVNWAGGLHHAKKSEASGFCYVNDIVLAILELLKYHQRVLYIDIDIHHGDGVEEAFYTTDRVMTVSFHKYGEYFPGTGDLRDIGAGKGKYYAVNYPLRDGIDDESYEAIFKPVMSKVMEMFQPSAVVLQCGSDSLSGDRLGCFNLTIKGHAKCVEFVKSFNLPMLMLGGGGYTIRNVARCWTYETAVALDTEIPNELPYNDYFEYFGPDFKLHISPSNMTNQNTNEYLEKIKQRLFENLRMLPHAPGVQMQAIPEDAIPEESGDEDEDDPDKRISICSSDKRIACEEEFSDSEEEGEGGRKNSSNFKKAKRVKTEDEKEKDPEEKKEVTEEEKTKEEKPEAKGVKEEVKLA
UniProt Q8K4B0: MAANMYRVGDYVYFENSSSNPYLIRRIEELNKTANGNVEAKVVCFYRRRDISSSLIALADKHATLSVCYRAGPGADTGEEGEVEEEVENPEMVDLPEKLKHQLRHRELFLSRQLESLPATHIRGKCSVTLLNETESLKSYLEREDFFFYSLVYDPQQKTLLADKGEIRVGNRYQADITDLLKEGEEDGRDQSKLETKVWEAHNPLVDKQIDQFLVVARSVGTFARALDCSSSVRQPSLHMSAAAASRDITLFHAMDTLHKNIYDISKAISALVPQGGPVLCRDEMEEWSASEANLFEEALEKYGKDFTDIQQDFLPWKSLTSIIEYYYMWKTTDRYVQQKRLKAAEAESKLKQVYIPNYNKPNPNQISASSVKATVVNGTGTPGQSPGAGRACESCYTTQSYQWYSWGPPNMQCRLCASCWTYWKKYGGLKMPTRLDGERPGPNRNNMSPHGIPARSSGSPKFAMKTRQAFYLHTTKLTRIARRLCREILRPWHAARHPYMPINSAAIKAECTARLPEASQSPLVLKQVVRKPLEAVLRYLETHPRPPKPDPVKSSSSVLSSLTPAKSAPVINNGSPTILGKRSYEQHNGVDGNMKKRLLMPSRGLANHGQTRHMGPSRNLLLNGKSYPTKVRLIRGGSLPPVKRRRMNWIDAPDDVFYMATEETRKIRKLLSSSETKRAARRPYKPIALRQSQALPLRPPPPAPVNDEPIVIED

B1: SIN3A (endogenous, mouse ESCs) (protein, UniProt Q60520 1-1274)
chain: MKRRLDDQESPVYAAQQRRIPGSTEAFSHQHRVLAPAPPVYEAVSETMQSATGIQYSVAPNYQVSAVPQSSGSHGPAIAAVHSSHHHPTAVQPHGGQVVQSHAHPAPPVAPVQGQQQFQRLKVEDALSYLDQVKLQFGSQPQVYNDFLDIMKEFKSQSIDTPGVISRVSQLFKGHPDLIMGFNTFLPPGYKIEVQTNDMVNVTTPGQVHQIPTHGIQPQPQPPPQHPSQPSSQSAPTPAQPAPQPTAAKVSKPSQLQAHTPASQQTPPLPPYASPRSPPVQPHTPVTISLGTAPSLQNNQPVEFNHAINYVNKIKNRFQGQPDIYKAFLEILHTYQKEQRNAKEAGGNYTPALTEQEVYAQVARLFKNQEDLLSEFGQFLPDANSSVLLSKTTAEKVDSVRNDHGGTVKKPQLNNKPQRPSQNGCQIRRHSGTGATPPVKKKPKLMSLKESSMADASKHGVGTESLFFDKVRKALRSAEAYENFLRCLVIFNQEVISRAELVQLVSPFLGKFPELFNWFKNFLGYKESVHLESFPKERATEGIAMEIDYASCKRLGSSYRALPKSYQQPKCTGRTPLCKEVLNDTWVSFPSWSEDSTFVSSKKTQYEEHIYRCEDERFELDVVLETNLATIRVLEAIQKKLSRLSAEEQAKFRLDNTLGGTSEVIHRKALQRIYADKAADIIDGLRKNPSIAVPIVLKRLKMKEEEWREAQRGFNKVWREQNEKYYLKSLDHQGINFKQNDTKVLRSKSLLNEIESIYDERQEQATEENAGVPVGPHLSLAYEDKQILEDAAALIIHHVKRQTGIQKEDKYKIKQIMHHFIPDLLFAQRGDLSDVEEEEEEEMDVDEATGAPKKHNGVGGSPPKSKLLFSNTAAQKLRGMDEVYNLFYVNNNWYIFMRLHQILCLRLLRICSQAERQIEEENREREWEREVLGIKRDKSDSPAIQLRLKEPMDVDVEDYYPAFLDMVRSLLDGNIDSSQYEDSLREMFTIHAYIAFTMDKLIQSIVRQLQHIVSDEVCVQVTDLYLAENNNGATGGQLNSQTSRSLLESAYQRKAEQLMSDENCFKLMFIQSQGQVQLTVELLDTEEENSDDPVEAERWSDYVERYMSSDTTSPELREHLAQKPVFLPRNLRRIRKCQRGREQQEKEGKEGNSKKTMENVESLDKLECRFKLNSYKMVYVIKSEDYMYRRTALLRAHQSHERVSKRLHQRFQAWVDKWTKEHVPREMAAETSKWLMGEGLEGLVPCTTTCDTETLHFVSINKYRVKYGTVFKAP
B2: DNTTIP1 (endogenous, mouse ESCs) (protein, UniProt Q99LB0 1-328)
chain: MGATGDTEQPRGPGGAERGGLELGDAGAAGQPVLTNPWNIMIKHRQVQRRGRRSQMTTSFTDPAISMDLLRAVLQPSINEEIQGVFNKYMKFFQKAALNVRDNVGEEVDAEQLIQEACRSCLEQAKLLFSDGEKVIPRLAHELPGIKRGRQAEEESHRGSPIPKKRKGRPPGHVLSNDRAAAGMVWKQKSCEPIRREGPKWDPARLNESTTFVLGSRANKALGMGGTRGRIYIKHPHLFKYAADPQDKHWLAEQHHMRATGGKMAYLLIEEDIRDLAASDDYRGCLDLKLEELKSFVLPSWMVEKMRKYMETLRTENEHRAAEAPPQT

Experiments:
Test in all cases: co-IP; Flag IP of HDAC1-Flag WT, Y48E or E63R from extracts of Hdac1/2 DKO mouse ESCs 5 days after OHT; coIP buffer 250 mM NaCl, 20 mM Tris-HCl pH 7.5, 0.5% IGEPAL, 1 mM EDTA; 4°C overnight; western blotting of endogenous partners; n = 4
[1] = biological target: HDAC1–Y48E (Flag), stably expressed in Hdac1/2 double knockout mouse ESCs (UniProt Q13547)
[2] = biological target: HDAC1-Flag (wild type), stably expressed in Hdac1/2 double knockout mouse ESCs (UniProt Q13547)
[3] = biological target: HDAC1–E63R (Flag), stably expressed in Hdac1/2 double knockout mouse ESCs (UniProt Q13547)

binding [1]	binding [2]	binding [3]	Molecule
no binding	binds	–	MTA1 (endogenous, mouse ESCs) (from UniProt Q8K4B0 1-715)
binds	binds	binds	B1
no binding	binds	no binding	B2
